From publication PMC7534258, “Novel temporin L antimicrobial peptides: promoting self-assembling by lipidic tags to tackle superbugs” (Journal of Enzyme Inhibition and Medicinal Chemistry, 2020)
Where a SMILES comes first, the peptide text is derived from it. [ ]: non-standard residue; d: D form. The star is where a group is joined. Heptanoyl = CCCCCCC(=O)*; Pentanoyl = CCCCC(=O)*

Experiments:
[1] = Thioflavin T peptide aggregation in LUVs; conditions: peptide 5–50 µM
CD spectroscopy in SUVs [2] = conditions: 8 µM peptide, SUVs DOPG/CL, phosphate buffer 5 mM
CD spectroscopy in SUVs [3] = conditions: 8 µM peptide, SUVs DOPG/DOPE/CL, phosphate buffer 5 mM
[4] = Membrane fluidity, Laurdan generalised polarisation; conditions: Gram negative mimicking membranes, 25 °C

| SMILES | ThT aggregation in membrane (in words) [1] | θ222/θ208 Gram-positive mimicking membranes (CD spectroscopy in SUVs [2]) | θ222/θ208 Gram-negative mimicking membranes (CD spectroscopy in SUVs [3]) | generalised polarisation (GP) LUVs + 5 µM Compound [4] | generalised polarisation (GP) LUVs + 30 µM Compound [4] |
| --- | --- | --- | --- | --- | --- |
| CCCCC(=O)N[C@@H](Cc1ccccc1)C(=O)N[C@H](C(=O)N1CCC[C@H]1C(=O)N[C@@H](Cc1c[nH]c2ccccc12)C(=O)N[C@@H](Cc1ccccc1)C(=O)N[C@@H](CO)C(=O)N[C@@H](CCCCN)C(=O)N[C@@H](Cc1ccccc1)C(=O)N[C@H](CC(C)C)C(=O)N[C@H](CCCCN)C(=O)N[C@@H](CCCNC(=N)N)C(=O)N[C@H](C(=O)N[C@@H](CC(C)C)C(N)=O)[C@@H](C)CC)C(C)C [Compound 2B, CH3(CH2)3CO-Phe-Val-Pro-Trp-Phe-Ser-Lys-Phe-DLeu-DLys-Arg-Ile-Leu-NH2] (Pentanoyl-FVPWFSKF[dL][dK]RIL-NH2) | lower aggregation at low peptide/lipid ratio | 2.3 | 2.6 | −0.05 | 0.03 |
| CC[C@H](C)[C@H](NC(=O)[C@H](CCCNC(=N)N)NC(=O)[C@@H](CCCCN)NC(=O)[C@@H](CC(C)C)NC(=O)[C@H](Cc1ccccc1)NC(=O)[C@H](CCCCN)NC(=O)[C@H](CO)NC(=O)[C@H](Cc1ccccc1)NC(=O)[C@H](Cc1c[nH]c2ccccc12)NC(=O)[C@@H]1CCCN1C(=O)[C@@H](NC(=O)[C@@H](N)Cc1ccccc1)C(C)C)C(=O)N[C@@H](CC(C)C)C(N)=O [Compound 1B, H-Phe-Val-Pro-Trp-Phe-Ser-Lys-Phe-DLeu-DLys-Arg-Ile-Leu-NH2] (H-FVPWFSKF[dL][dK]RIL-NH2) | drastic increase of fluorescence | 2.0 | 1.3 | 0.09 | 0.11 |
| CCCCCCC(=O)N[C@@H](Cc1ccccc1)C(=O)N[C@H](C(=O)N1CCC[C@H]1C(=O)N[C@@H](Cc1c[nH]c2ccccc12)C(=O)N[C@@H](Cc1ccccc1)C(=O)N[C@@H](CO)C(=O)N[C@@H](CCCCN)C(=O)N[C@@H](Cc1ccccc1)C(=O)N[C@H](CC(C)C)C(=O)N[C@H](CCCCN)C(=O)N[C@@H](CCCNC(=N)N)C(=O)N[C@H](C(=O)N[C@@H](CC(C)C)C(N)=O)[C@@H](C)CC)C(C)C [Compound 3B, CH3(CH2)5CO-Phe-Val-Pro-Trp-Phe-Ser-Lys-Phe-DLeu-DLys-Arg-Ile-Leu-NH2] (Heptanoyl-FVPWFSKF[dL][dK]RIL-NH2) | lower aggregation at low peptide/lipid ratio | 3.1 | 10.3 | −0.07 | 0.07 |
